# Assay results reported in the supplement of paper PMC12889115.
# The other results are listed elsewhere or left out. These are raw signals, not scaled to a control.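 Primary screen: polymyxin B was added at a level permeabilizing Salmonella outer membranes while sparing inner membranes. DMSO wells, both with and without polymyxin B, established maximum growth. Plate-to-plate variation meant each plate was ranked on its own, and the lowest-OD600 compounds were selected as hits.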
# Test system: Salmonella enterica serovar Typhimurium SL1344
# Experiment: bacterial growth OD600 after 18 h with compound and polymyxin B; higher = more bacterial growth (less inhibition)
# Conditions: 50 µM, Mueller-Hinton broth
SMILES,bacterial growth OD600 (polymyxin B 1 µg/mL),bacterial growth OD600 (polymyxin B 0.75 µg/mL)
O=C(c1cc(COc2ccccc2F)[nH]n1)N1CCCCC1c1cccnc1 (centres undefined),0.889,–
CCC(CC)N1C[C@H]2OC(=O)N(CCc3ccc(OC)cc3)[C@H]2C1,1.07,–
CC(=O)c1cccc(OCc2cc(C(=O)NC3CCOC(C)(C)C3)n[nH]2)c1 (centres undefined),0.929,–
O=C1O[C@@H]2CN(c3ccc(C(F)(F)F)cn3)C[C@@H]2N1CCN1CCCCC1,0.805,–
O=C(Cc1ccc(N2CCC(NCCc3ccncc3)CC2)cc1)NCc1ccccc1,–,0.758
CCc1nc(C)ccc1OCC(=O)N1CCCC(CO)(CCOc2ccccc2)C1 (centres undefined),–,0.788
COc1ccc(CN2CCC(C(Cc3ccccc3Cl)N(C)C(=O)c3ccco3)CC2)cc1 (centres undefined),–,0.9
CSCCC(=O)N1CCc2ccc(NC(=O)CCc3ccc(C)cc3)cc2C1,1.08,–
COc1ccc(OC2CCN(C(=O)C3CC3)CC2)c(C(=O)NCCC2=CCCCC2)c1,0.013,–
CO[C@H]1[C@H](NC(=O)c2ccco2)c2ccccc2C12CCN(Cc1c[nH]nc1C1CCCCC1)CC2,–,0.827
CCCCNC(=O)C1CCCN(c2nc(C)c3ccc(OC)cc3n2)C1 (centres undefined),–,0.738
COc1ccc(Cl)cc1NC(=O)CCC1CCCN(C(=O)Cn2cccn2)C1 (centres undefined),0.864,–
COc1cc(CN2CCCC(c3ccnc(SCCN4CCCC4)n3)C2)ccc1F (centres undefined),–,0.746
COc1cccc(C2CCCN2C(=O)c2cn(Cc3ccc(F)cc3)nn2)c1 (centres undefined),0.855,–
COc1ccc(CN2CCOc3ccc(C(O)Cc4ccccc4)cc3C2)cc1OC (centres undefined),–,0.725
O=C(CC1CCCCC1)Nc1nc2c(s1)C(=O)CC(C(=O)N1CCCCC1c1cccnc1)C2 (centres undefined),–,0.855
CCNCC1(O)CCCN(Cc2ccc(F)c(F)c2)C1=O (centres undefined),1.02,–
O[C@@H]1CN(Cc2sc3ccccc3c2Cl)CC[C@H]1N1CCN(c2ccccn2)CC1,1.04,–
O=C(c1ccccc1)C1CCN(C(=O)C2CCC(=O)N(C3CC3)C2)CC1 (centres undefined),0.866,–

# Reprinted at random: two compounds from above.
SMILES,bacterial growth OD600 (polymyxin B 1 µg/mL),bacterial growth OD600 (polymyxin B 0.75 µg/mL)
COc1ccc(Cl)cc1NC(=O)CCC1CCCN(C(=O)Cn2cccn2)C1 (centres undefined),0.864,–
O=C(Cc1ccc(N2CCC(NCCc3ccncc3)CC2)cc1)NCc1ccccc1,–,0.758
